The list does not hold the whole screen: it covers a few groups of compounds. Other doses and runs of a compound may be missing. T/C gives the treated animals as a percentage of the vehicle group. Some entries give survivors of the animals treated and no T/C: the source files T/C as zero there, which appears to mark a toxic dose or a test without result, not a measured value. Some doses without a T/C left all or most animals alive at the check, yet need not have been tolerated: the source hardly ever lists a survival T/C far under the control, and the zero likely stands for such cases as well. Counts of survivors are from the toxicity check (mostly the fifth day) where no day follows; animals may have died later. Schedule codes are those of the source, read here as Q, the interval in days (D) or hours (H), X, the number of doses. Some metal complexes and salts are drawn in pieces, as in the source, so charges may not balance. Where survival is the endpoint, this PubChem deposit counts one and a half times the control or more as active, and values a quarter to a half above the control carry no call in these data; other NCI protocols may use other cut-offs. Some T/C values carry the count of animals alive at the toxicity check (mostly the fifth day); without a count or a note in brackets, all were alive then. Some entries were tested several times; their values stand side by side, smallest first.
System: BDF1 mice, P388 leukemia ip, median survival T/C
Assay: NCI In Vivo Anticancer Drug Screen. Data for tumor model P388 Leukemia (intraperitoneal) in B6D2F1 (BDF1) mice
Conditions: T/C endpoint: median survival time, higher T/C = longer survival
Method in brief: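 Each value expresses how treatment altered survival: treated-mouse outcome over vehicle-mouse outcome, both groups bearing the transplanted tumour.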

[1] = dose: 12.5 mg/kg/injection, schedule: Q01DX009 (ip), vehicle: saline
[2] = dose: 50.0 mg/kg/injection, schedule: Q01DX009 (ip), vehicle: saline
[3] = dose: 100.0 mg/kg/injection, schedule: Q01DX009 (ip), vehicle: saline
[4] = dose: 200.0 mg/kg/injection, schedule: Q01DX009 (ip), vehicle: saline
[5] = dose: 8.2 mg/kg/injection, schedule: Q01DX009 (ip), vehicle: saline

For `CN(C)c1ccc(N=O)cc1.[C-]#N.[C-]#N.[C-]#N.[C-]#N.[C-]#N.[Fe+6]`, the T/C (dose: 6.25 mg/kg/injection, schedule: Q01DX009 (ip), vehicle: saline) was 104 % of control [5 of 6 alive], the T/C [1] was 109 % of control and the T/C (dose: 25.0 mg/kg/injection, schedule: Q01DX009 (ip), vehicle: saline) was 95 % of control. The survivor count [2] was 5 of 6, the survivor count [3] was 5 of 6 and the T/C (dose: 100.0 mg/kg/injection, schedule: Q04DX003 (ip), vehicle: saline) was 104 % of control. For the same compound, the survivor count [4] was 5 of 6, the T/C (dose: 200.0 mg/kg/injection, schedule: Q04DX003 (ip), vehicle: saline) was 104 % of control and the survivor count (dose: 400.0 mg/kg/injection, schedule: Q04DX003 (ip), vehicle: saline) was 0 of 6.
For `CC1CCCCN1.C[CH2][Sn]([Br])([CH2]C)[CH2]C`, the T/C (dose: 0.75 mg/kg/injection, schedule: Q01DX009 (ip), vehicle: Klucel (hydroxypropylcellulose) (HPC)) was 122 % of control, the T/C (dose: 1.5 mg/kg/injection, schedule: Q01DX009 (ip), vehicle: Klucel (hydroxypropylcellulose) (HPC)) was 106 % of control and the T/C (dose: 3.0 mg/kg/injection, schedule: Q01DX009 (ip), vehicle: Klucel (hydroxypropylcellulose) (HPC)) was 103 % of control. The T/C (dose: 6.0 mg/kg/injection, schedule: Q01DX009 (ip), vehicle: Klucel (hydroxypropylcellulose) (HPC)) was 111 % of control [5 of 6 alive] and the T/C (dose: 12.0 mg/kg/injection, schedule: Q01DX009 (ip), vehicle: Klucel (hydroxypropylcellulose) (HPC)) was 123 % of control [5 of 6 alive].
`C1C[N-]1.C1C[N-]1.C1C[N-]1.[Cl][Rh]([Cl])[Cl]` was tested, and the T/C (dose: 25.0 mg/kg/injection, schedule: Q01DX009 (ip), vehicle: Klucel (hydroxypropylcellulose) (HPC)) was 115 % of control, the T/C (dose: 25.0 mg/kg/injection, schedule: Q01DX009 (ip), vehicle: saline with Tween-80) was 109 % of control and the T/C (dose: 50.0 mg/kg/injection, schedule: Q01DX009 (ip), vehicle: Klucel (hydroxypropylcellulose) (HPC)) was 100 % of control [5 of 6 alive]. The T/C (dose: 50.0 mg/kg/injection, schedule: Q01DX009 (ip), vehicle: saline with Tween-80) was 100 % of control, the T/C (dose: 100.0 mg/kg/injection, schedule: Q01DX009 (ip), vehicle: Klucel (hydroxypropylcellulose) (HPC)) was 120 % of control and the T/C (dose: 100.0 mg/kg/injection, schedule: Q01DX009 (ip), vehicle: saline with Tween-80) was 109 % of control. The T/C (dose: 100.0 mg/kg/injection, schedule: Q04DX003 (ip), vehicle: Klucel (hydroxypropylcellulose) (HPC)) was 95 % of control [5 of 6 alive], the survivor count (dose: 200.0 mg/kg/injection, schedule: Q04DX003 (ip), vehicle: Klucel (hydroxypropylcellulose) (HPC)) was 3 of 6 and the survivor count (dose: 400.0 mg/kg/injection, schedule: Q04DX003 (ip), vehicle: Klucel (hydroxypropylcellulose) (HPC)) was 3 of 6.
In the case of `CCN(CCCl)CC1OC(OC)C2OC(C)(C)OC12` (stereo not given), the T/C (dose: 2.0 mg/kg/injection, schedule: Q01DX009 (ip), vehicle: saline) is reported as 158 % of control [5 of 6 alive], the T/C (dose: 4.1 mg/kg/injection, schedule: Q01DX009 (ip), vehicle: saline) is reported as 195 % of control and the T/C [5] is reported as 211 % of control [5 of 6 alive]. The survivor count [5] was 3 of 6, the T/C (dose: 8.3 mg/kg/injection, schedule: Q04DX003 (ip), vehicle: saline) was 162 % of control and the T/C [1] was 141 [4 of 6 alive] and 188 % of control [4 of 6 alive]. For the same compound, the T/C (dose: 12.5 mg/kg/injection, schedule: Q04DX003 (ip), vehicle: saline) was 133 % of control, the T/C (dose: 18.0 mg/kg/injection, schedule: Q01DX009 (ip), vehicle: saline) was 94 [4 of 6 alive] and 104 % of control [5 of 6 alive] and the T/C (dose: 18.75 mg/kg/injection, schedule: Q04DX003 (ip), vehicle: saline) was 166 % of control. The survivor count [2] was 0 of 6, the survivor count [3] was 0 of 6 and the survivor count [4] was 0 of 6. The survivor count (dose: 400.0 mg/kg/injection, schedule: Q01DX009 (ip), vehicle: saline) was 0 of 6.
For `Cc1cc([N+](=O)[O-])cc([N+](=O)[O-])c1O`, the survivor count (dose: 10.0 mg/kg/injection, schedule: Q04DX003 (ip), vehicle: saline with Tween-80) was 4 of 6, the survivor count (dose: 20.0 mg/kg/injection, schedule: Q04DX003 (ip), vehicle: saline with Tween-80) was 3 of 6 and the survivor count (dose: 40.0 mg/kg/injection, schedule: Q04DX003 (ip), vehicle: saline with Tween-80) was 2 of 6. For the same compound, the survivor count (dose: 100.0 mg/kg/injection, schedule: Q01DX001 (ip), vehicle: Klucel (hydroxypropylcellulose) (HPC)) was 2 of 6, the survivor count (dose: 200.0 mg/kg/injection, schedule: Q01DX001 (ip), vehicle: Klucel (hydroxypropylcellulose) (HPC)) was 0 of 6 and the survivor count (dose: 400.0 mg/kg/injection, schedule: Q01DX001 (ip), vehicle: Klucel (hydroxypropylcellulose) (HPC)) was 0 of 6.
With `O=P1(N(CCCl)CCCl)OCCCN1CCCl` (stereo not given) the T/C (dose: 0.8 mg/kg/injection, schedule: Q01DX010 (ip), vehicle: carboxymethylcellulose (CMC)) was 90 % of control, the T/C (dose: 1.5 mg/kg/injection, schedule: Q01DX010 (ip), vehicle: carboxymethylcellulose (CMC)) was 90 % of control [5 of 6 alive] and the T/C (dose: 3.0 mg/kg/injection, schedule: Q01DX010 (ip), vehicle: carboxymethylcellulose (CMC)) was 100 % of control. The T/C (dose: 6.0 mg/kg/injection, schedule: Q01DX010 (ip), vehicle: carboxymethylcellulose (CMC)) was 90 % of control [5 of 6 alive], the T/C (dose: 12.5 mg/kg/injection, schedule: Q01DX010 (ip), vehicle: carboxymethylcellulose (CMC)) was 261 % of control and the T/C (dose: 25.0 mg/kg/injection, schedule: Q01DX010 (ip), vehicle: carboxymethylcellulose (CMC)) was 300 % of control. For the same compound, the survivor count (dose: 50.0 mg/kg/injection, schedule: Q01DX010 (ip), vehicle: carboxymethylcellulose (CMC)) was 6 of 6, the T/C (dose: 100.0 mg/kg/injection, schedule: Q01DX010 (ip), vehicle: carboxymethylcellulose (CMC)) was 94 % of control [4 of 6 alive] and the survivor count (dose: 200.0 mg/kg/injection, schedule: Q01DX010 (ip), vehicle: carboxymethylcellulose (CMC)) was 6 of 6.
For `Fc1ccc(N(CCCl)CCCl)cc1`, the T/C (dose: 100.0 mg/kg/injection, schedule: Q04DX002 (ip), vehicle: saline with Tween-80) was 127 % of control [5 of 6 alive], the T/C (dose: 200.0 mg/kg/injection, schedule: Q04DX002 (ip), vehicle: saline with Tween-80) was 142 % of control and the T/C (dose: 266.0 mg/kg/injection, schedule: Q04DX002 (ip), vehicle: saline with Tween-80) was 152 % of control. For the same compound, the T/C (dose: 400.0 mg/kg/injection, schedule: Q04DX002 (ip), vehicle: saline with Tween-80) was 144 and 161 % of control [5 of 6 alive] and the survivor count (dose: 600.0 mg/kg/injection, schedule: Q04DX002 (ip), vehicle: saline with Tween-80) was 3 of 6.
In the case of `CC(Cl)CN(CC(C)Cl)C(=O)OCC(N)C(=O)O` (stereo not given), the T/C (dose: 12.5 mg/kg/injection, schedule: Q01DX010 (ip), vehicle: water) is reported as 100 % of control, the T/C (dose: 25.0 mg/kg/injection, schedule: Q01DX010 (ip), vehicle: water) is reported as 100 % of control and the T/C (dose: 50.0 mg/kg/injection, schedule: Q01DX010 (ip), vehicle: water) is reported as 100 % of control. For the same compound, the T/C (dose: 100.0 mg/kg/injection, schedule: Q01DX010 (ip), vehicle: water) was 100 % of control, the T/C (dose: 200.0 mg/kg/injection, schedule: Q01DX010 (ip), vehicle: water) was 100 % of control and the survivor count (dose: 400.0 mg/kg/injection, schedule: Q01DX010 (ip), vehicle: water) was 0 of 10.
In the case of `CN(CCCl)CC1OC(O)C(O)C(O)C1O` (stereo not given), the T/C (dose: 33.0 mg/kg/injection, schedule: Q01DX009 (ip), vehicle: saline sonified) is reported as 140 % of control [4 of 6 alive], the T/C (dose: 50.0 mg/kg/injection, schedule: Q01DX009 (ip), vehicle: saline sonified) is reported as 172 % of control and the T/C (dose: 75.0 mg/kg/injection, schedule: Q01DX009 (ip), vehicle: saline sonified) is reported as 104 % of control [5 of 6 alive].

From PubChem BioAssay AID328 (DTP/NCI, 2004)
